For at least one compound, name, drawing or mass did not settle the structure.
Experiments:
[1] = test system: human islets β-cells; assay: β-cell apoptosis (TUNEL) and necrosis (propidium iodide) in human islets; assay type: cell-based; conditions: 33.3 mM glucose, 4 days, with IL-1Ra 500 ng/ml or PDTC 100 μM
Experimental: (§1) Islet isolation and culture. Islets were isolated from pancreases of eleven organ donors at the Department of Surgery, University of Geneva Medical Center, as described (32-34). The islet purity was >95%, as judged by dithizone staining (if this degree of purity was not primarily achieved by routine isolation, islets were handpicked). […] For long-term in vitro studies, the islets were cultured on extracellular matrix-coated plates derived from bovine corneal endothelial cells (Novamed Ltd., Jerusalem, Israel), allowing the cells to attach to the dishes and spread, preserving their functional integrity (7;35). Islets were cultured in CMRL 1066 medium containing 100 U/ml penicillin, 100 μg/ml streptomycin and 10% fetal calf serum (Gibco, Gaithersburg, Md.), hereinafter referred to as culture medium. Two days after plating, when most islets were attached and began to flatten, the medium was changed to culture medium containing 5.5, 11.1 or 33.3 mM glucose. […]
β-cell apoptosis. The free 3-OH strand breaks resulting from DNA degradation were detected by the terminal deoxynucleotidyl transferase-mediated dUTP nick-end labeling (TUNEL) technique (38). […] The samples were immediately evaluated by fluorescence microscopy for positively stained […] nuclei.

[2] = test system: human islets; assay: Insulin release and content of human islets; assay type: cell-based; conditions: 33.3 mM glucose or IL-1β for 4 days plus IL-1Ra or PDTC
Experimental: as §1
Insulin release and content. […] Insulin was determined by a human insulin RIA kit (CIS bio international, Gif-Sur-Yvette, France).

S=C(S)N1CCCC1 [PDTC, pyrrolidinedithiocarbamate]
glucose-induced β-cell apoptosis / DNA fragmentation (TUNEL) [1]: inhibited glucose induced DNA fragmentation
acute glucose-stimulated insulin release, co-incubation [2]: partially restored such glucose stimulation

Reference: patent US7572770B2, “Use of an interleukin 1 receptor antagonist and/or pyrrolidinedithiocarbamate for the treatment or prophylaxis of type 2 diabetes” (University of Zurich, priority 2002, dated 2009)
